From publication PMC7819943, “Rice protein-binding microarrays: a tool to detect cis-acting elements near promoter regions in rice”
Some of the results follow.

Protein sequences, listed by entry. Tags and fused reporters are not part of them.
UniProt Q0JBA9, entry or part of it: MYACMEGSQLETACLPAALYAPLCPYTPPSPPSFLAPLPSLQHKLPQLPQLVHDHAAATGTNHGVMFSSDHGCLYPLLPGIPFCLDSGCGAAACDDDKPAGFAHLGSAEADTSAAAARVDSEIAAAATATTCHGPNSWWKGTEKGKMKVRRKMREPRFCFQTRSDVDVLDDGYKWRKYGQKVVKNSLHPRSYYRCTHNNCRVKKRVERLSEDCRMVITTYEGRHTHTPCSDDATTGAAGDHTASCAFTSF

Biological target: OsWRKY34 (Oryza sativa, UniProt Q0JBA9 1-250)
Assay: protein-binding microarray (RPBM); PBS, 2% BSA, 51.3 ng/ul salmon testes DNA, 50 uM zinc acetate, 200 nM TF, 25 C, 1 h; high values mean tight binding
Details: protein: recombinant; tags: N-terminal polyhistidine and DsRed monomer fusion (pET32a); label: CyDye5-dUTP incorporated in the synthesized complementary strand; 3' TTTTT single-stranded linker to array surface; dsDNA, one strand shown
How it was run: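 Transcription factors, each fused N-terminally to a polyhistidine tag and DsRed, were expressed in E. coli BL21-CodonPlus and purified on Ni–NTA. A custom Agilent array was made double-stranded by primer extension with Cy5-dUTP and blocked with 2% BSA. It was incubated with 200 nM protein in PBS, 2% BSA, salmon testes DNA and 50 µM zinc acetate at 25 °C for 1 h, then washed. The binding signal is per-feature fluorescence intensity (arbitrary units) read on an Axon 4000B scanner.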

Sequence | binding signal
TTCCAACAATGCGCCCACGTCCGGGTAACATCCGGCGCTTCGGAGTCACCTAGTGCAG | 8300 fluorescence intensity (a.u.)
TTCTTCCCAATGGACGCTTCCACAAAACTCTTCGTGCTTACGGAGTCACCTAGTGCAG | 8080 fluorescence intensity (a.u.)
TCAAAGATTGGGCTTTGACCCGGCTTTGGCCGTCGTTGACCGGAGTCACCTAGTGCAG | 9770 fluorescence intensity (a.u.)
GTTTTAGATAAGATTGAAGTCAAACTTTTATAACTTTGACCGGAGTCACCTAGTGCAG | 8210 fluorescence intensity (a.u.)
ATAGACAACCCGCTTCTCTCTCTTATGTTACTGTCAGGGGCGGAGTCACCTAGTGCAG | 13600 fluorescence intensity (a.u.)
CTCCATCGCGCCGCCTACCACCGATTCCCTGCCGCATCTGCGGAGTCACCTAGTGCAG | 9620 fluorescence intensity (a.u.)
CCTCCTCCGGCTCCATCAGCTCGTCACGACCGGCGTCTCTCGGAGTCACCTAGTGCAG | 8780 fluorescence intensity (a.u.)
AAGACGAAAGGTCAAACGTTTGTTAAAAAGTCAACGGCGTCGGAGTCACCTAGTGCAG | 9930 fluorescence intensity (a.u.)
CCATTTTTCAGACTGTGTTGTTCTTGCTGGGCACTTTTCCCGGAGTCACCTAGTGCAG | 13300 fluorescence intensity (a.u.)
TCCTGTCTCTTGGTTCGGGTGATTCTTTCTTCCTTTCTGGCGGAGTCACCTAGTGCAG | 9260 fluorescence intensity (a.u.)
TTAGCCCTTTTGCTTCATATGTTTGACCAGATGCTTTCAACGGAGTCACCTAGTGCAG | 9290 fluorescence intensity (a.u.)
GGTACTAGTAGGATTCGTGGGGTTTCGTGACCGTATTAAACGGAGTCACCTAGTGCAG | 8130 fluorescence intensity (a.u.)
ACTTGTCGATGTAACATGCATATCAATTACATCTTTGTTTCGGAGTCACCTAGTGCAG | 8980 fluorescence intensity (a.u.)
TCATAAAACATGGCTTAGTATTTTGATTTTCTACCCGACACGGAGTCACCTAGTGCAG | 8080 fluorescence intensity (a.u.)
TGCCGCTGCCGCCGTGTGCCCGAGCGAGCCCACGCCCACACGGAGTCACCTAGTGCAG | 8340 fluorescence intensity (a.u.)
TCTCGTCGCGCGCCGGCGCCTCCTCTCGTCGCGCACCGGCCGGAGTCACCTAGTGCAG | 8490 fluorescence intensity (a.u.)
CGGTAACTATTTCAGTTTTTGAAATTATGGTTTGTCTCGTCGGAGTCACCTAGTGCAG | 8240 fluorescence intensity (a.u.)
ATCCCTCAAATTCCCGTGCGACACGTCTGCTGCTTCCATCCGGAGTCACCTAGTGCAG | 8330 fluorescence intensity (a.u.)
CCACAACTCGTGCAACATCAGCTCACTCGTGTTCCCAACCCGGAGTCACCTAGTGCAG | 8120 fluorescence intensity (a.u.)
CATTTTTGTCGGCTCTCTCTTTGTTTTGTTTGTTTTATTTCGGAGTCACCTAGTGCAG | 13400 fluorescence intensity (a.u.)
TTGGGGTTTAGTTTTTATATGGCTCACTTATTGGGTCAACCGGAGTCACCTAGTGCAG | 15400 fluorescence intensity (a.u.)
GGACAGAGGGAGAGAGCCAAACATAGAGGGGCGGGTTAATCGGAGTCACCTAGTGCAG | 12200 fluorescence intensity (a.u.)
GAGAGGAGTGTCACCTCTTCTTCTTCTTCTTCACCTGCTACGGAGTCACCTAGTGCAG | 8290 fluorescence intensity (a.u.)

Quoted from the entries so far (2 entries):
Sequence | binding signal
ATAGACAACCCGCTTCTCTCTCTTATGTTACTGTCAGGGGCGGAGTCACCTAGTGCAG | 13600 fluorescence intensity (a.u.)
CTCCATCGCGCCGCCTACCACCGATTCCCTGCCGCATCTGCGGAGTCACCTAGTGCAG | 9620 fluorescence intensity (a.u.)
